Data taken from US20040110247A1, “New molecular tools for the rapid assessment of the presence and viability of microorganisms and methods of use” (priority 2002, published 2004).
At least one compound was matched to its structure with a doubt left.

Test system: Wild-type (wt) Streptococcus gordonii
Assay: RT-qPCR of 16S rRNA after drug exposure
Format: cell-based
Conditions: reverse transcription of 16S rRNA from total RNA, then qPCR
Procedure: 1) Strains and growth conditions: Wild-type (wt) and penicillin tolerant (Tol) Streptococcus gordonii (I. Caldelari et al., Antimicrobial Agents and Chemotherapy, 2000, 44(10):2802-2810) were grown at 37 degrees Celsius, either in brain heart infusion broth (BHI) without aeration, or on Columbia agar supplemented with 3% blood. Quantitative culture was performed by plating serial dilutions of bacterial cultures taken at various time points on penicillinase-containing blood-agar plates. Colonies counts were determined after incubation for […] at 37° C.
3) Extraction and purification of bacterial DNA and RNA: (i) Total DNA from 3 ml of culture samples was extracted and purified using the DNeasy Tissue Kit according to the instructions of the manufacturer (Qiagen). […] Total RNA concentrations were determined by spectrophotometry and quality checked on 1% MOPS-agarose gels. […]
4) Quantitative Real-Time PCR was performed using the following probe FAM-5′-TTGCACCACTACCAGATGGAC CTGC-3′-TAMRA (SEQ ID NO:3) according to the instruction of the manufacturer (Perkin-Elmer) on Sequence Detection System 5700 (Perkin-Elmer) in a total volume of 50 μl 1×PCR buffer (Gibco) containing 25 pmoles of each primer, […] of fluorescent probe, […] each dNTP and 1.5 UI of Taq DNA polymerase (Gibco). […]

`C[C@H]1COc2c(N3CCN(C)CC3)c(F)cc3c(=O)c(C(=O)O)cn1c23` [levofloxacin] was tested, and the “16S rRNA amplicons (viability marker) during drug-induced killing” value was “decrease in the specific ribosomal RNA amplicon”.
